Test results as given in PubChem BioAssay AID1671190 (National Center for Advancing Translational Sciences (NCATS), 2021).
“And” between values parts separate entries of the source, which are not always exact repeats. Identical values can stand only once. Hit rate of the full screen: of about 580,000 compounds, about 6,100 (1.1%) were called active. The inconclusive results got no clear call from the source; some entries with a clear call stand among them for comparison. The call rests on the fitted dose curve; in most records, active means well fitted inhibition curve with a large enough effect; inconclusive means small, poorly fitted or top-dose-only effect, or another doubt; inactive means no such curve, though single readings can be large or run the other way. A potency beside an inconclusive call is a rough fit, not a confirmed value.

Chains of the proteins cited; added tags and fusions are not shown. Lines headed by an entry give the natural chain unless they say otherwise; changes in a name come on top.
UniProt P18054: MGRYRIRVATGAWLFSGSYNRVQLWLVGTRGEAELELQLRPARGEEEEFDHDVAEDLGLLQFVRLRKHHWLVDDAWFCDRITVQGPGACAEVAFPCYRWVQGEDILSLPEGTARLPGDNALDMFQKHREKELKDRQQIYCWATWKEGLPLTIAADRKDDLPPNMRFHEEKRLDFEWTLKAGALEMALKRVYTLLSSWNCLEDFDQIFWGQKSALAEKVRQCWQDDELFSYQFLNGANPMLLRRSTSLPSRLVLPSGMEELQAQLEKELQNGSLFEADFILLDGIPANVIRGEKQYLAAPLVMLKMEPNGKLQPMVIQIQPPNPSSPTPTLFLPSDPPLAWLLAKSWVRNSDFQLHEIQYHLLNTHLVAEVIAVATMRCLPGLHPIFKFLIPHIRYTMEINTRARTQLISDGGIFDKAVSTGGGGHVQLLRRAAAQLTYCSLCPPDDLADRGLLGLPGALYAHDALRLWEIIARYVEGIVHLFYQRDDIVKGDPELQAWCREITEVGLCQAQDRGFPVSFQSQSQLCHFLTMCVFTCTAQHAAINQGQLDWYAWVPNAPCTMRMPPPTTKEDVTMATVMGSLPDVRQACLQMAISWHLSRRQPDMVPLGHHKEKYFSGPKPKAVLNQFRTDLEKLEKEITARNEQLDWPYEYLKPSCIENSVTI

Biological target: Polyunsaturated fatty acid lipoxygenase ALOX12 (Homo sapiens) (UniProt P18054)
Assay: Primary qHTS assay for inhibitors of human arachidonate 12S-lipoxygenase (ALOX12): Round 2
Settings: purified 12hLO, xylenol orange hydroperoxide absorbance; activity change, negative = inhibition: at 108 µM (top of the series) unless noted
In short: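 Purified human 12hLO at 150 nM in 25 mM Hepes, 0.01% Triton X-100, pH 7.0, preincubated 15 min at room temperature with compound. Reaction started with 40 uM arachidonic acid, 30 min at room temperature. Hydroperoxide measured by Fe-xylenol orange, 573/405 nm absorbance ratio.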
On the % scale 0 is the no-effect control and ±100 the full control effect; potency means the concentration at half of the fitted maximal effect.

SMILES	Potency	activity change, negative = inhibition
Cc1ccccc1C(=O)Nc1ccc2nc(N3CCN(C4CCCCC4)CC3)cc(C(=O)O)c2c1	active: 6.31 µM	
COc1cc2ccccc2cc1C(=O)Nc1ccc2oc(-c3ccc(Cl)cc3)nc2c1	inconclusive: 89.1 µM [inhibitor, partial curve, poor fit]	
NNc1ccc(S(=O)(=O)c2ccc(NN)cc2)cc1	inactive	
CN(C)c1cccc(C(=O)Nc2nc3ccccc3[nH]2)c1	inconclusive: 112 µM [inhibitor, partial curve, poor fit]	
O=C(NC(=S)Nc1ccc(CN2CCOCC2)cc1)c1cccc(F)c1	inconclusive: 6.31 µM [inhibitor, full curve, poor fit]	
COc1ccccc1Nc1nc(N)c(C(=O)c2ccc(Cl)cc2)s1	inconclusive: 6.31 µM [inhibitor, full curve, poor fit]	
COc1ccc(NC(=O)c2c(NCc3cccs3)sc3c2CCCC3)cc1	inconclusive: 112 µM [inhibitor, single point]	
COc1ccc(-c2c(C)c3ccc(OC)cc3oc2=O)cc1	inconclusive: 0.794 µM [inhibitor, full curve, poor fit]	
O=S(=O)(NCC(O)Cn1c2ccc(Cl)cc2c2cc(Cl)ccc21)c1ccccc1 (centres undefined)	inconclusive: 31.6 µM [inhibitor, single point]	
Cc1ccc(OCC(=O)N2CCc3ccccc3C2)cc1	inconclusive: 7.08 µM [inhibitor, full curve, poor fit]	
CCCCN(C)CC(O)Cn1cc(/C=C/C(=O)c2ccc(C)cc2)c2ccccc21 (centres undefined)	inconclusive: 126 µM [inhibitor, single point] and inconclusive: 39.8 µM [inhibitor, partial curve, poor fit]	
CCNC(=O)NC(=O)CNc1ccccc1N(C)Cc1ccccc1	active: 7.08 µM	
CCC1(C)Cc2sc3c(=O)[nH]c(=S)[nH]c3c2CO1 (centres undefined)	inconclusive: 56.2 µM [inhibitor, partial curve, poor fit]	
O=C(NCC1CC1)c1ccc2c(c1)S(=O)(=O)c1cc(Cl)ccc1C2=O	inconclusive: 44.7 µM [inhibitor, partial curve, poor fit]	
COC(=O)[C@@]1(Cc2ccc(F)cc2)[C@H]2c3cc(C(=O)N(C)C)n(Cc4ccc(Cl)c(C(F)(F)F)c4)c3C[C@H]2CN1C(=O)c1ccccc1	inconclusive: 44.7 µM [inhibitor, partial curve, poor fit]	
S=c1[nH]nc(C2CC2)n1Cc1ccccc1	inconclusive: 50.1 µM [inhibitor, partial curve, poor fit]	
O=C(Nc1cccc2ncccc12)c1ccc(-c2ccc(Br)cc2)o1	inconclusive: 25.1 µM [inhibitor, partial curve, poor fit]	
COc1ccccc1N1CCN(CCc2n[nH]c(=S)n2-c2ccccc2)CC1	inconclusive: 126 µM [inhibitor, partial curve, poor fit]	
COc1ccc(-c2cc(C(=O)Nc3c(C)n(C)n(-c4ccccc4)c3=O)c3ccccc3n2)c(OC)c1	inconclusive: 158 µM [inhibitor, single point]	
CN(C)CCCn1c(-c2ccc(COc3ccc(Br)cc3)o2)n[nH]c1=S	active: 14.1 µM	

SMILES	Potency	activity change, negative = inhibition
COCCNC(=O)[C@@]1(Sc2ccc(OC)cc2)CC(=O)N[C@@H]1c1ccc(OC)cc1	inconclusive: 100 µM [inhibitor, partial curve, poor fit]	
COc1cc(CN2CCCN(C)CC2)c([N+](=O)[O-])cc1OC	inconclusive: 2.82 µM [inhibitor, full curve, poor fit]	
COc1ccc(-c2csc(Nc3ccc(C)cn3)n2)cc1OC	inconclusive: 50.1 µM [inhibitor, partial curve, poor fit]	
CC(C)(CNC(=O)C1CCCC1)c1ccccc1	inconclusive: 6.31 µM [inhibitor, full curve, poor fit]	
O=[S+]([O-])(Nc1ccccc1)c1ccc2c(c1)OCCN(Cc1cocn1)C2	inactive	
Cc1cc(C)c(S(N)(=O)=O)c(C)c1N(C)S(=O)(=O)c1ccccc1	inactive	
CCOc1ccc(/C=C2\SC(=S)N(NS(=O)(=O)c3ccc(C)cc3)C2=O)cc1OC	inconclusive: 44.7 µM [inhibitor, partial curve, poor fit]	
COC(=O)CNC(=O)c1cc(-c2ccc([S+](C)(=O)[O-])cc2)c2cccn2n1		inactive: -0.499% [at 6.33 µM]
O=C(Nc1ccc(F)c(C(F)(F)F)c1)Nc1nnc(-c2ccncc2)s1	inconclusive: 7.69 µM [inhibitor, partial curve, poor fit]	
COc1ccc(OC)c(-c2csc(NC(=O)CN3C(=O)C4CCCCC4C3=O)n2)c1 (centres undefined)	inactive	
Cc1cc(-c2nsc(=O)o2)c(S(C)(=O)=O)s1	active: 8.91 µM	
COc1ccc(C)cc1S(=O)(=O)NCc1ccccn1	inconclusive: 31.6 µM [inhibitor, partial curve, poor fit]	
COc1ccc(NC(=O)COc2ccccc2)c2cccnc12	inconclusive: 7.08 µM [inhibitor, full curve, poor fit]	
Cc1ccc(NC(=S)NCC(C)C)cc1	inconclusive: 11.2 µM [inhibitor, full curve, poor fit]	
N#CCCn1c(SCC(=O)NCc2ccco2)nc2ccccc21	inconclusive: 12.6 µM [inhibitor, partial curve, poor fit]	
CCc1ccc(-c2nn(CC(=O)NCc3ccccc3)c3c2cnc2ccc(C)cc23)cc1	inconclusive: 10 µM [inhibitor, full curve]	
CCOC(=O)c1sc(N)c(C(N)=O)c1C	inconclusive: 56.2 µM [inhibitor, partial curve, poor fit]	
O=C(CC1Cc2ccccc2C1)N1CCN(CCO)CC(O)C1 (centres undefined)	inconclusive: 3.98 µM [inhibitor, full curve, poor fit]	
CC(=O)N1Cc2ccccc2CC2(CCN(Cc3ccc(C(F)(F)F)nc3)CC2)C1	inconclusive: 56.2 µM [inhibitor, partial curve]	
